For some assays here: Results from cells or extracts need not show a direct contact. For some assays here: For at least one entry, the source does not settle the construct or the ends of the probe.

By UniProt entry, the sequences of proteins in these tests, tags left out. Residues count along the entry.
UniProt P10721, 26-976 L764I/P838H: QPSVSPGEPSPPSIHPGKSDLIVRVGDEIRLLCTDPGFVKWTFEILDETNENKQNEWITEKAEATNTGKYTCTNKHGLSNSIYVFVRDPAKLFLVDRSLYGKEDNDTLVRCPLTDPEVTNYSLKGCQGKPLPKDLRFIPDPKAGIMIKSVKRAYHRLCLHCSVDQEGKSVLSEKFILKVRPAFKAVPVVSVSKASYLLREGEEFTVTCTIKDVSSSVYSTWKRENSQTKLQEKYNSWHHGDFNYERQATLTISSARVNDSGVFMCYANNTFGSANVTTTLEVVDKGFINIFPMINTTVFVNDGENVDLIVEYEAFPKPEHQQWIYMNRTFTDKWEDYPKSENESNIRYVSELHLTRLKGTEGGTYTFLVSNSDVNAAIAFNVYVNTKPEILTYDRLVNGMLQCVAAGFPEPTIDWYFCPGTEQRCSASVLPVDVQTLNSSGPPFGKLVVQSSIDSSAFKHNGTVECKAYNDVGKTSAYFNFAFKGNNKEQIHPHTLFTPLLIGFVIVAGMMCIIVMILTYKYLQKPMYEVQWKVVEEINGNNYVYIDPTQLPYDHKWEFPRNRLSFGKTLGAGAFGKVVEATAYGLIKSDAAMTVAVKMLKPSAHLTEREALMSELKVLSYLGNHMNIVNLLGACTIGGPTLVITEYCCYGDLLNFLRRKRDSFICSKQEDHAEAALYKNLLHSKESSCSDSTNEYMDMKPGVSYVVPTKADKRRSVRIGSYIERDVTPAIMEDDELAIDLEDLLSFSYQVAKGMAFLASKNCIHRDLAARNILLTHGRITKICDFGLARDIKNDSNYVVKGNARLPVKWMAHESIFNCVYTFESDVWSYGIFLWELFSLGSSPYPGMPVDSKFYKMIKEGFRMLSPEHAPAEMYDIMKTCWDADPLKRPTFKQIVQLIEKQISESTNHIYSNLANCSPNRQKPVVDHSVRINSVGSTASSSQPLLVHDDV
UniProt P05532, 25-979: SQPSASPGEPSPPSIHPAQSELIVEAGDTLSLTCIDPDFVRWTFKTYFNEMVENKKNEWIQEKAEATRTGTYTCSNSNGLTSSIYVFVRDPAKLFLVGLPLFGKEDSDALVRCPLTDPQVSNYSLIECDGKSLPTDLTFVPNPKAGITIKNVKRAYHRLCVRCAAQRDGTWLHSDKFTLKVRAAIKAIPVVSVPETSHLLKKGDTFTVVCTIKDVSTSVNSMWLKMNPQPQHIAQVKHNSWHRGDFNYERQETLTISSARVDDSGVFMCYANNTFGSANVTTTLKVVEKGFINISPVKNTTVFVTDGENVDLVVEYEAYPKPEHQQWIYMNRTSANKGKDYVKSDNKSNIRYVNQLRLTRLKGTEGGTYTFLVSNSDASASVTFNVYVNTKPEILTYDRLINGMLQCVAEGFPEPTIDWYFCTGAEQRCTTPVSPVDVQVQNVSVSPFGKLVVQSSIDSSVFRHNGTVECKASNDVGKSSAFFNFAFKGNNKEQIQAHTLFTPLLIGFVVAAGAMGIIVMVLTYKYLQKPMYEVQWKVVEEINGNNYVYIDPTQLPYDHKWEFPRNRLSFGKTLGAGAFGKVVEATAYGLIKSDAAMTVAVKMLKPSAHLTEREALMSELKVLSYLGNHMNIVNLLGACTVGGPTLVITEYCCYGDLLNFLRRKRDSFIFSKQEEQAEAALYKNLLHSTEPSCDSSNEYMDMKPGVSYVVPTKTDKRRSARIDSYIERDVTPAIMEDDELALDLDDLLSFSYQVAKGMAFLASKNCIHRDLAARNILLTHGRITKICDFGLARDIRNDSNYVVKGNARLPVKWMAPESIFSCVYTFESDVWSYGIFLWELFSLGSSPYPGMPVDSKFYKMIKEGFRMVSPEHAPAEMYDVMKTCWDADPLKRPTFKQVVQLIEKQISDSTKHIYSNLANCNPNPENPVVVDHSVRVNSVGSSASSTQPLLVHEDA

Series [1] has as its target KIT (CD117), on MDA-MB-231 cells (Homo sapiens) (UniProt P10721). The experiment in a line: activity in cells. The following applies: PS between last 3 nt at 5' end of DNA aptamer; C3 spacer between aptamer and RNA passenger; 2'-F-U in RNA; 3' TEG-cholesterol on second passenger; miR-26a delivered to MDA-MB-231 cells; in xenografts raised in KIT+ but not KIT- tumor cells; protein on the cell surface; dose not given here.

The target of series [2] is c-Kit, on TUBO cells (Mus musculus) (UniProt P05532). The experiment in a line: flow cytometry. The settings on record: PS between last 3 nt at 5' end of DNA aptamer; C3 spacer between aptamer and RNA passenger; 2'-F-U in RNA; 3' TEG-cholesterol on second passenger; biotinylated chimera on TUBO cells; level comparable to anti-c-Kit antibody; protein on the cell surface; label: biotin (binding assay). (In general: In flow cytometry, cells or beads pass a laser one at a time.)

Series [3] has the same target. The experiment in a line: activity in cells. The following applies: PS between last 3 nt at 5' end of DNA aptamer; C3 spacer between aptamer and RNA passenger; 2'-F-U in RNA; 3' TEG-cholesterol on second passenger; TUBO cell number reduction by chimera, not a binding constant; protein on the cell surface.
The target in series [4] is c-Kit overexpressed on MEF cells (UniProt P05532). As to the kind of experiment: activity in cells. The settings on record: C3 spacer between aptamer and linker in each strand; PS at first three and last three linkages; exosome delivery to c-Kit overexpressing MEF cells enhanced by targeting chimera; protein on the cell surface; dose not given here.
For series [5], the target named is KIT (CD117), on MDA-MB-231 cells (Homo sapiens) (UniProt P10721). The experiment in a line: flow cytometry. The following applies: MDA-MB-231 cells; distribution nearly identical to anti-KIT antibody; protein on the cell surface; label: 3' biotin; single-stranded DNA.

For the sequence “GAGGCATACCAGCTTATTCAAGGGGCCGGGGCAAGGGGGGGGTACCGTGGTAGGACATAGTAAGTGCAATCTGCGAACCUAUUCUGG / GUUACUUGCACG / UUCAAGUAAUCCAGGAUAGGCU [human KIT aptamer-miR-26a chimera]”, the “functional effect of the aptamer” value in series [1] was “active”.
For “GCTCAACGCGGGACGGCTCTCCCATTGACCCUAUUCUGG / GUUACUUGCACG / UUCAAGUAAUCCAGGAUAGGCU [mouse c-Kit aptamer-miR-26a chimera]”, the binding result in series [2] was “binds”. In series [3], the IC50 came to 0.083 µM.
“GCTCAACGCGGGACGGCTCTCCCATTGACAAGTTCATTA / CACCCCACCTCGCTCCCGTGACACTAATGCTATAATGAACTT [mouse c-Kit aptamer-CD63 aptamer linker chimera]”: the “functional effect of the aptamer” value in series [4] is listed as “active”.
As for “GAGGCATACCAGCTTATTCAAGGGGCCGGGGCAAGGGGGGGGTACCGTGGTAGGACATAGTAAGTGCAATCTGCGAA [anti-human KIT DNA aptamer]”, the binding result in series [5] is “binds”.

As a reminder, the IC50 is the concentration at which inhibition is half-maximal. Higher therefore signals a need for much substance.

For the origin of these results see patent US20200171068.
